Source: US20240392024A1
Results are given in words; binding and its absence hold for the method and conditions named. Binding calls can cover weak binding; strength is not graded here.

B1: anti-human TNFR2 mouse monoclonal antibody 33C12 (antibody, V domains shown)
VH: DVKLVESGGGLVKPGGSLKLSCAASGFTFSDYTMSWVRQTPEKRLEWVATISTGGSYTYYPDSVKGRFTISRDNAKNTLYLQMSSLKSEDTAMYYCTRDGGYDGDYFDYWGQGTTLTVSS
VL: ENVLTQSPAIMSASPGEKVTMTCRASSSVSSSYLHWYQQKSGASPKLWIYRTSNLASGVPARFSGSGSGTSYSLTISSVEAEDAATYYCQQYSGYPLTFGAGTRLELK
B2: anti-human TNFR2 mouse monoclonal antibody 7F2 (antibody, V domains shown)
VH: QVTLKESGPGILQPSQTLSLTCSFSGFSLNTFGLGVGWIRQPSGKGLEWLTHIWWNDDKYYNPALKSRLTISRDTSENLVFLKIANVDTADTATYYCARIEGLRRFDYWGQGTTLTVSS
VL: DIQMTQSPSSLSASLGGKVTITCKTSQDINKFIAWYQHKPGKGPRLLIHYTSTLQPGIPSRFSGSGSGRDYSFSISDLEPEDIATYYCLQYANLWAFGGGTKLEIK
B3: anti-human TNFR2 mouse monoclonal antibody 12E12 (antibody, V domains shown)
VH: EVQLQQSGAELVKPGASVKLSCTVSGFNIKDFYIHWVKQRPEQGLEWIGRVDPEDGNTEYAPNFQDRATMTTDTSSNTAYLQLSSLTSVDTAVYYCSTWDGFSYFDYWGLGTTLTVSS
VL: QAVVTQESALTTSPGETVTLTCRSSTGPVTTNNYANWVQEKPDHLFTGLIGGTNDRAPGVPARFSGSLIGDKTALTITGTQTEDEAVYFCALWYRNHWVFGGGTKLTVL
B4: anti-human TNFR2 mouse monoclonal antibody 27F6 (antibody, V domains shown)
VH: EVQLQQSGTVLARPGASVKMSCKTSGYTFTSYWMHWVKQRPGQGLEWIGTIYPGNSDTSYNQKFKGKAKLTAVTSASTAYMELNSLTNEDSAVFYCTRENLLLRSYFFDYWGQGTTLTVSS
VL: DIVMTQSPASLAVSLGQRATISCKASQSVDYDGDSYLNWYQQKPGQPPKLLIYAASNLPSGIPARFSGSGSGTDFTLNIHPVEEEDAATYYCQQSNEDPRTFGGGTKLEIK

target: mCRD2; assay: ELISA, plate coated with TNFR2-mCRD2

Row | Binder | binding
1 | B1 | no binding
2 | B2 | no binding
3 | B3 | binds
4 | B4 | binds

target: mCRD3; assay: ELISA, plate coated with TNFR2-mCRD3

Row | Binder | binding
5 | B1 | binds
6 | B2 | binds
7 | B3 | no binding
8 | B4 | no binding

target: mCRD4; assay: ELISA, plate coated with TNFR2-mCRD4

Row | Binder | binding
9 | B1 | binds
10 | B2 | binds
11 | B3 | binds
12 | B4 | binds

target: mCRD1; assay: ELISA, plate coated with TNFR2-mCRD1

Row | Binder | binding
13 | B1 | binds
14 | B2 | no binding
15 | B3 | binds
16 | B4 | binds
